These results are taken from the supplement of paper PMC10849652.

By UniProt entry, the sequences of proteins in these tests, tags left out. Where a name states a change or a piece, a line headed by the entry shows the natural chain unless it says otherwise.
UniProt Q9UKU7: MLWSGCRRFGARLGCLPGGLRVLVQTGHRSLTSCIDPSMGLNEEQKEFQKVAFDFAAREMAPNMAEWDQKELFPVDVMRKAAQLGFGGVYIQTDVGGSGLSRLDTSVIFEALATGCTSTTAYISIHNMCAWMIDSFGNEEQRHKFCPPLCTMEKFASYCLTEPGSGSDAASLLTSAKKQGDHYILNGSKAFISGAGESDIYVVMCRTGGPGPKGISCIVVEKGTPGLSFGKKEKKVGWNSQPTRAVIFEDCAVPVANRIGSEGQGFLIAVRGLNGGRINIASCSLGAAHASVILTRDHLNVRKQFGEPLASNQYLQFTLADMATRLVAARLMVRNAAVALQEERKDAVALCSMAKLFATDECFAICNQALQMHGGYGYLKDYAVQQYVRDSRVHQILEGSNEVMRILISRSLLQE
UniProt Q9NRN7: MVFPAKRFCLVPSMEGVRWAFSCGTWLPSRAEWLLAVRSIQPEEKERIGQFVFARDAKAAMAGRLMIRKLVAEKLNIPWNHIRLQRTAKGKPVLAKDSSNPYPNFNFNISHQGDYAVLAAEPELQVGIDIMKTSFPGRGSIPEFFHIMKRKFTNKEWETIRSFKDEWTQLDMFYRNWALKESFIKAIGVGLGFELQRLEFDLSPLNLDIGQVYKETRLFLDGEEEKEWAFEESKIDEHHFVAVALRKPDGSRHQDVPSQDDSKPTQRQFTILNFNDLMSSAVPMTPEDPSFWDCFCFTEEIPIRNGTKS
UniProt Q5VST6: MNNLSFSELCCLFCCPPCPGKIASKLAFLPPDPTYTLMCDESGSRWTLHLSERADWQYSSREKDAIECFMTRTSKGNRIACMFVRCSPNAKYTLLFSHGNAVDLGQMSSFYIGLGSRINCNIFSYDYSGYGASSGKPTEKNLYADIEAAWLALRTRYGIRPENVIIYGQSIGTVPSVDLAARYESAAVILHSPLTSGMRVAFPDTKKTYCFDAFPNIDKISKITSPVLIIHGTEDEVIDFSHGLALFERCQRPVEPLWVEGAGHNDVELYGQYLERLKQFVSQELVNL
UniProt Q96EY9: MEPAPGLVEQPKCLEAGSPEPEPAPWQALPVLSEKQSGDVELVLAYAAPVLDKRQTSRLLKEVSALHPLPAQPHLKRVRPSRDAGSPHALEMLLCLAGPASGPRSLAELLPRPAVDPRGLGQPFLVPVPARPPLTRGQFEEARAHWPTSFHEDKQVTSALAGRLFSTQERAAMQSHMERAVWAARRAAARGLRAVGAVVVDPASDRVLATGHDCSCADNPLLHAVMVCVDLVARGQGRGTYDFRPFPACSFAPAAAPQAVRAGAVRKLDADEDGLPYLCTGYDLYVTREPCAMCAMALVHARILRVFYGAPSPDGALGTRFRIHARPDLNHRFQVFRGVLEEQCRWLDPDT
UniProt Q9H568: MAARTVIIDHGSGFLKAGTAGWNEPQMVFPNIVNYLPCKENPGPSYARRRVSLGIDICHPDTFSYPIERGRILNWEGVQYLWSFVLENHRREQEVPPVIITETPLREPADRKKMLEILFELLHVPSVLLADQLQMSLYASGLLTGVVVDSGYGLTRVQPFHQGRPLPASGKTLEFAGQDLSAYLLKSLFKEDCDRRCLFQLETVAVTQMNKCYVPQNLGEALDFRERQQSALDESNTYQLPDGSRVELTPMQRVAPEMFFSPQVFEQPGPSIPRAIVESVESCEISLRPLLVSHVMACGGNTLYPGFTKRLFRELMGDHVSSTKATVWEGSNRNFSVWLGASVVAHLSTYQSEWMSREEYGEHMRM
UniProt Q9NPJ3: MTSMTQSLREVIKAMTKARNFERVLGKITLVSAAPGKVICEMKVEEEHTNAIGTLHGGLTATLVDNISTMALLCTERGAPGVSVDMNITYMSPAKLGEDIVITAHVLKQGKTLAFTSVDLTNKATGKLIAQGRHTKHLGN
UniProt O75027: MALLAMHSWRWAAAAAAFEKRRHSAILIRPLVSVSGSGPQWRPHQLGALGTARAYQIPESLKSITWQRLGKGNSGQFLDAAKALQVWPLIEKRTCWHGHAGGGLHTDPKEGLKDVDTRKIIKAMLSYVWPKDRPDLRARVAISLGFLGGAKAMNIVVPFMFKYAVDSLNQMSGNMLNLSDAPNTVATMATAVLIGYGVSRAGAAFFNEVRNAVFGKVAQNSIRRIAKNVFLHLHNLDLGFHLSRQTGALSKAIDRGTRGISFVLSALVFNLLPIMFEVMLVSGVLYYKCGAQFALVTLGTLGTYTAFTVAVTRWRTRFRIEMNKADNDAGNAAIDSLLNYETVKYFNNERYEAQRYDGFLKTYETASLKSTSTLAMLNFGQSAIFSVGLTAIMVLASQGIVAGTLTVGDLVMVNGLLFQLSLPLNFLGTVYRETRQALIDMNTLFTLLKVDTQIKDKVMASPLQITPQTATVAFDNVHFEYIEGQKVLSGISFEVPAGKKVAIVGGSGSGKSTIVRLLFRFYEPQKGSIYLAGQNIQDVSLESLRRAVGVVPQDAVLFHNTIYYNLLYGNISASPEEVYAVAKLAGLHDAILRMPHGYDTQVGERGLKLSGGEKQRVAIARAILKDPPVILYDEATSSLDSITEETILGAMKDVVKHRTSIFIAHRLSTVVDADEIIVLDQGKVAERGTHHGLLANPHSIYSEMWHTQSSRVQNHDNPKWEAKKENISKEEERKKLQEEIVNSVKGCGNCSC
UniProt P53396: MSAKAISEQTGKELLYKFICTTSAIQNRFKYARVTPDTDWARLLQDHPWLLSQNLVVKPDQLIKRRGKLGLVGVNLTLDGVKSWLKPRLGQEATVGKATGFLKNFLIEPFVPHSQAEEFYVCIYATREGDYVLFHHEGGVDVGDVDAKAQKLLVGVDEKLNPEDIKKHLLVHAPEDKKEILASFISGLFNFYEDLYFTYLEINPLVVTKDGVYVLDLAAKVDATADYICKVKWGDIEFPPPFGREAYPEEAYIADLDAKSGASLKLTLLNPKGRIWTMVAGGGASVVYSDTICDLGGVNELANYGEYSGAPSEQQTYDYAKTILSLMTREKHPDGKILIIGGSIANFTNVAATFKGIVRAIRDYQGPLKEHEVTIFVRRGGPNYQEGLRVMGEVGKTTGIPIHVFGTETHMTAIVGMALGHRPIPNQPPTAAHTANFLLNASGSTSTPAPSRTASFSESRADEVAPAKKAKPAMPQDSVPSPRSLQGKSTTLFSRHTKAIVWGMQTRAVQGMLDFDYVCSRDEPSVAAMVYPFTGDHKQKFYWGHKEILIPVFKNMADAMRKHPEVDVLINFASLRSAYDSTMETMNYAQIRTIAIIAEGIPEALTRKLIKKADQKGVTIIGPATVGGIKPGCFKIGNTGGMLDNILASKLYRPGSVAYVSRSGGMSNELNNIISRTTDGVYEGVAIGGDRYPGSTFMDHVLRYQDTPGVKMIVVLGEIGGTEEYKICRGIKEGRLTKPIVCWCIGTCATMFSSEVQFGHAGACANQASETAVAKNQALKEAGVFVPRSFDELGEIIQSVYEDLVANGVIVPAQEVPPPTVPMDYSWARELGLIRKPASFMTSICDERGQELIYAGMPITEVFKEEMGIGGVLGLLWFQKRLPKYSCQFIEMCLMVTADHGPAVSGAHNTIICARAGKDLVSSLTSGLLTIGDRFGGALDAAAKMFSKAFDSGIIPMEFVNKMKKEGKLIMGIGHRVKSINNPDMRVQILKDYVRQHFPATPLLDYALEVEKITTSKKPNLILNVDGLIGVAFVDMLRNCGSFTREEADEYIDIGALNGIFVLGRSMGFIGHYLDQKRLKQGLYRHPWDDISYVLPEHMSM
UniProt O14639: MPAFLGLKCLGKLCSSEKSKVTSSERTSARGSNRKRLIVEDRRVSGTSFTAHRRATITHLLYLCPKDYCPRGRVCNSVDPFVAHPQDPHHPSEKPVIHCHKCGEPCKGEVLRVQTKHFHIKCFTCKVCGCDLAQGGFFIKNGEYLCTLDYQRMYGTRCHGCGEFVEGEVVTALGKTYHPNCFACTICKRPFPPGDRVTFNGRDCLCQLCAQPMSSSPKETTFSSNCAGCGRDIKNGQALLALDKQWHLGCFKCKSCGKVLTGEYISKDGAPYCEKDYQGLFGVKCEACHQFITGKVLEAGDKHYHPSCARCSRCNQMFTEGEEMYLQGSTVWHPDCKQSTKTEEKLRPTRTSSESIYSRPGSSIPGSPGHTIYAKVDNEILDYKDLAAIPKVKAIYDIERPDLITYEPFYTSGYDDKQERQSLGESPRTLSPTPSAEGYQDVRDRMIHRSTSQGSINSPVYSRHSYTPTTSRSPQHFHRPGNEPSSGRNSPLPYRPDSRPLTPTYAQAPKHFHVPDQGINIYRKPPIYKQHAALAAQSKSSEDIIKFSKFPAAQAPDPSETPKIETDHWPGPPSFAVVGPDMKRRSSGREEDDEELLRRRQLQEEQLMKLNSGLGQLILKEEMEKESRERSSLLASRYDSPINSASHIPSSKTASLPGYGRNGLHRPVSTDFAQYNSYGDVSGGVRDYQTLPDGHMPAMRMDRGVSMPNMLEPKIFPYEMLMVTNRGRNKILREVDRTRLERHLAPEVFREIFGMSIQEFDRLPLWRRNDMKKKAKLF
UniProt P01023, whole entry, looked up: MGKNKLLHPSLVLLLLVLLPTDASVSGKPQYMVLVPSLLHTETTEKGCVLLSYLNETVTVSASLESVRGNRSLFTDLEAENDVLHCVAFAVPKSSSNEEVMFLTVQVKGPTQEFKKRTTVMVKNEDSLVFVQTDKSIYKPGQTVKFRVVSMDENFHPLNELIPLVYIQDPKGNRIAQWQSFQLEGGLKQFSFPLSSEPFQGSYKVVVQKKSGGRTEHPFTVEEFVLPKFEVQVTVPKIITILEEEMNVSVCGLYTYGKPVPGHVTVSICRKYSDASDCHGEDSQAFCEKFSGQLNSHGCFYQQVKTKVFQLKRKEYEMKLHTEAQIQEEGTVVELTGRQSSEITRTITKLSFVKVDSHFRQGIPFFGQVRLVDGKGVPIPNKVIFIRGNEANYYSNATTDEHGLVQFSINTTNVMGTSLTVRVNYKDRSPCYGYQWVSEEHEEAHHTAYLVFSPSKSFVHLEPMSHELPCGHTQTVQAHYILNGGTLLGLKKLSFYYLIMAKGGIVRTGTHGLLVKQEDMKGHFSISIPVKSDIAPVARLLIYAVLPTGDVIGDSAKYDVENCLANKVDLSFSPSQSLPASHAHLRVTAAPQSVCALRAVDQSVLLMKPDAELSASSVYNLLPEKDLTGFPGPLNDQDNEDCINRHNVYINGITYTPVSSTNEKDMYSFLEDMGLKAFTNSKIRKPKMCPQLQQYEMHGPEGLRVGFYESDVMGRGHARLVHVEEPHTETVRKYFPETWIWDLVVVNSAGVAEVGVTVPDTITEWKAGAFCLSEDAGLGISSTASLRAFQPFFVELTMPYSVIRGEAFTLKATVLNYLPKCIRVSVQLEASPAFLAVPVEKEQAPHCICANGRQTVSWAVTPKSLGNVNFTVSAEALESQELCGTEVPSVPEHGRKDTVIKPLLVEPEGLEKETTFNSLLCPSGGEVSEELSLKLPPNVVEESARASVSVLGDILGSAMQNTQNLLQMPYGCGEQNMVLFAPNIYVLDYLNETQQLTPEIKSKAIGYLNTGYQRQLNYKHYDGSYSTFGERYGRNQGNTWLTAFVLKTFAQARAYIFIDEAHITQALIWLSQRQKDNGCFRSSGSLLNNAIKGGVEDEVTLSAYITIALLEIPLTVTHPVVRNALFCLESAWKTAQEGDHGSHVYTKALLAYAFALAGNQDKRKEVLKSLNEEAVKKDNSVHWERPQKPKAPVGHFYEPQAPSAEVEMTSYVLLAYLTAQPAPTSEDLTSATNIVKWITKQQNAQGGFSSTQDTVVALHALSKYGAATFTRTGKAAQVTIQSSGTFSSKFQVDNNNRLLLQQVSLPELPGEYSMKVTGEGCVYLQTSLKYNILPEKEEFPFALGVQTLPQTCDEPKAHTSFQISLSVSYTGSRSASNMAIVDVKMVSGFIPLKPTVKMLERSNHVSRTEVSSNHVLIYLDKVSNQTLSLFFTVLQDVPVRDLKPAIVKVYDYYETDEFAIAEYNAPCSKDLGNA
UniProt P09110: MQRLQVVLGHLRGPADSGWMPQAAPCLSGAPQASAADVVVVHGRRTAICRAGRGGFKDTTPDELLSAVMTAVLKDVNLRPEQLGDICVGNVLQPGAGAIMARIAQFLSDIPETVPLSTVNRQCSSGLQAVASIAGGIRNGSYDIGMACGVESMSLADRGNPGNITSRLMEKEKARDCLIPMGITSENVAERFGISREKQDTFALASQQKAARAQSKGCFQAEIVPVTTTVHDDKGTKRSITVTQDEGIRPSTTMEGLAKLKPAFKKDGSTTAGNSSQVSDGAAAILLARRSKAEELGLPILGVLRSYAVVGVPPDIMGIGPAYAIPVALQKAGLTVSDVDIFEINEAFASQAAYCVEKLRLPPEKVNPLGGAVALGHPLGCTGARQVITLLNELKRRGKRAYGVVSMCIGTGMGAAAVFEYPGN
UniProt P07311: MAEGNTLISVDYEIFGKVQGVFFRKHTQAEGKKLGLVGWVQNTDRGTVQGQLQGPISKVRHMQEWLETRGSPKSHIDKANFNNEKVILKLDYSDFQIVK

Some of the results follow.

Compound in the assay: CCn1c(C(=O)N(C2CC2)C2CC2)cc2c3c(ncn3C)c(Nc3cc(C)n(C)n3)nc21
The experiment in a line: log2 fold change, soluble protein after heating vs DMSO (PISA); higher = thermal stabilisation; K562 cells, 10 uM, 30 min; active = over 0.2 and 3.5 SD of the protein, either way, in both replicates (recomputed). Summed up: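 K562 cells (2×10^6 cells/mL) were treated with 10 μM compound for 30 min, and aliquots were heated for 3 min over 48°C-58°C. Pooled aliquots were extracted in PBS with 0.5% NP-40 at 4°C, and the supernatant after 21,000xg for 90 min was measured by TMTpro 16plex LC-MS/MS with channel sums equalised. Reported thermal stability, relative to control samples and from duplicates, is a log2 fold change.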
As for AAAS (UniProt Q9NRG9), the log2 fold change was inactive: -0.002. As for ACAD8 (UniProt Q9UKU7), the log2 fold change is inactive: -0.09. For the target ACTA1 (UniProt P68133), the log2 fold change is inactive: 0.007.

AASDHPPT (UniProt Q9NRN7): the log2 fold change was inactive: -0.042. For ABHD13 (UniProt Q7L211), the log2 fold change was inactive: 0.049.

In the case of ABCF1 (UniProt Q8NE71), the log2 fold change was inactive: 0.

Turning to ACTR1A (UniProt P61163), the log2 fold change is inactive: 0.013.

As to ACOT7 isoform 7 (UniProt O00154), the log2 fold change was inactive: -0.006.

As to ADA (UniProt P00813), the log2 fold change is inactive: 0.02. Consider ABHD17B (UniProt Q5VST6), for which the log2 fold change was inactive: -0.065.

As for ADAT3 (UniProt Q96EY9), the log2 fold change was inactive: -0.021. ACTL8 (UniProt Q9H568): the log2 fold change is inactive: 0.019.

In the case of ACTB, A0A2R8Y793, the log2 fold change is inactive: -0.014. Consider ACTR6 (UniProt Q9GZN1), for which the log2 fold change is inactive: 0.021. In the case of ACOT13 (UniProt Q9NPJ3) it was inactive: -0.01; in that of ACADS (UniProt P16219), inactive: -0.016.

With ACTL6A (UniProt O96019), the log2 fold change was inactive: -0.024. As for ABCB7 isoform 2 (UniProt O75027), the log2 fold change was inactive: -0.005. For the target ABCE1 (UniProt P61221), the log2 fold change was inactive: 0.045. As to ACLY (UniProt P53396), the log2 fold change was inactive: 0.021. Then ABLIM1 (UniProt O14639), with inactive: -0.098; and ACOX1 isoform 2 (UniProt Q15067), with inactive: 0.081. Turning to ACAT1 (UniProt P24752), the log2 fold change was inactive: -0.021. Consider ABCE1 (UniProt H0Y990), for which the log2 fold change is inactive: -0.212. On to ACBD3 (UniProt Q9H3P7), for which the log2 fold change is inactive: 0.014. For ACTR3 (UniProt P61158), the log2 fold change was inactive: 0.01. In the case of A2M (UniProt P01023) it was inactive: -0.013; in that of ACTR10 (UniProt Q9NZ32), inactive: 0.008. Turning to ADAR isoform 4 (UniProt P55265), the log2 fold change was inactive: 0.044.

For ACAA1 (UniProt P09110), the log2 fold change was inactive: 0.008. Consider ACYP1 (UniProt P07311), for which the log2 fold change is inactive: 0.045. For ABCC4 (UniProt O15439), the log2 fold change is inactive: 0.002. In the case of ACSS2 isoform 2 (UniProt Q9NR19) it was inactive: -0.007; in that of ACAT2 (UniProt Q9BWD1), inactive: -0.035. Turning to ABHD10 (UniProt Q9NUJ1), the log2 fold change is inactive: 0.029. In the case of ABI1 (UniProt Q8IZP0) it was inactive: -0.022; in that of ACOT9 isoform 4 (UniProt Q9Y305), inactive: -0.042.
